Data source: PubChem BioAssay AID504744 (Drosophila RNAi Screening Center, 2011)
Purpose: 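Find genes whose loss alters insulin-driven dAkt phosphorylation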 (primary screen). System: Drosophila Kc167 cells. Knock-down reagent: long dsRNA against Drosophila genes, 250 ng dsRNA per well of a 384-well plate. Timing: 3 days of knock-down, then overnight serum-free starvation before stimulation. Conditions: bovine insulin at 387 nM for 10 minutes after 12 h without serum. Read-out: 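Per-well phospho-dAkt level from an in-cell fluorescent antibody stain, divided by a DNA-dye signal; log2 residuals turned into z-scores that take cell number into account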. Active means: 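Under insulin, a gene counts as a hit if the average z-score of two replicates lies above 2.5 or below -2.5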.
In all, the deposit lists about 23,000 reagents; shown is an unselected part of those with a known target gene and a result. Of all reagents, 98 (0.43%) got an active call. 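Only hit calls are given; the phospho-dAkt signals, z-scores and hit direction were not deposited.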 A plus sign joins genes that one reagent is predicted to hit.

| gene | DRSC id | Call |
| --- | --- | --- |
| CG4021 (GeneID 37484) | DRSC04439 | inactive |
| CG14257 (GeneID 43257) | DRSC14752 | inactive |
| CG10307 (GeneID 37477) | DRSC04057 | inactive |
| CG13989 (GeneID 33869) | DRSC02321 | inactive |
| Grx3 (GeneID 34745) | DRSC02966 | inactive |
| ETH (GeneID 44125) | DRSC04612 | inactive |
| sNPF (GeneID 35286) | DRSC02309 | inactive |
| beat-Vb (GeneID 41583) | DRSC12940 | inactive |
| beat-Vb (GeneID 41583) | DRSC14844 | inactive |
| beat-Vb (GeneID 41583) | DRSC14845 | inactive |
| kmr (GeneID 5740131) | DRSC12986 | inactive |
| kmr (GeneID 5740131) | DRSC14827 | inactive |
| kmr (GeneID 5740131) | DRSC14828 | inactive |
| kmr (GeneID 5740131) | DRSC16472 | inactive |
| Sec71 (GeneID 34785) | DRSC01893 | inactive |
| CG32591 (GeneID 318104) | DRSC19063 | inactive |
| Mob3 (GeneID 34372) | DRSC02791 | inactive |
| CG12541 (GeneID 31650) | DRSC17483 | inactive |
| CG12541 (GeneID 31650) | DRSC17839 | inactive |
| ems (GeneID 41697) | DRSC16941 | inactive |
| POLDIP2 (GeneID 40655) | DRSC12194 | inactive |
| CG7126 (GeneID 42202) | DRSC16201 | inactive |
| CG14142 (GeneID 39261) | DRSC10145 | inactive |
| Ate1 (GeneID 37288) | DRSC05925 | inactive |
| vers (GeneID 39374) | DRSC10715 | inactive |
| Lnk (GeneID 43130) | DRSC16729 | inactive |
| CG31233 (GeneID 42557) | DRSC15888 | inactive |
| rasp (GeneID 44098) | DRSC08191 | inactive |
| CG14118 (GeneID 39465) | DRSC10122 | inactive |
| CG12129 (GeneID 36044) | DRSC06105 | inactive |
| CG3168 (GeneID 31612) | DRSC18287 | inactive |
| Nox (GeneID 5740310) | DRSC06596 | inactive |
| Nox (GeneID 5740310) | DRSC06857 | inactive |
| Bx (GeneID 32846) | DRSC19350 | inactive |
| CG31867 (GeneID 261614) | DRSC03338 | inactive |
| CG15873 (GeneID 37898) | DRSC04277 | inactive |
| pain (GeneID 37985) | DRSC04273 | inactive |
| kel (GeneID 35084) | DRSC03554 | inactive |
| obst-A (GeneID 33022) | DRSC20543 | inactive |
| CG5280 (GeneID 39033) | DRSC10498 | inactive |
| CG5280 (GeneID 39033) | DRSC22835 | inactive |
| Tbce (GeneID 35532) | DRSC04897 | inactive |
| Cyp4p1 (GeneID 45524) | DRSC07372 | inactive |
| Mp (GeneID 38769) | DRSC10193 | inactive |
| Mp (GeneID 38769) | DRSC11029 | inactive |
| Mp (GeneID 38769) | DRSC11030 | inactive |
| CG15756 (GeneID 32308) | DRSC19721 | inactive |
| dsx-c73A (GeneID 39831) | DRSC09435 | inactive |
| dsx-c73A (GeneID 39831) | DRSC09914 | inactive |
| dsx-c73A (GeneID 39831) | DRSC10429 | inactive |
| RpL11 (GeneID 37235) | DRSC07537 | inactive |
| Atox1 (GeneID 326216) | DRSC22416 | inactive |
| CG4733 (GeneID 42368) | DRSC15634 | inactive |
| CG14795 (GeneID 31109) | DRSC18513 | inactive |
| Idgf2 (GeneID 34979) | DRSC03350 | inactive |
| mRpL30 (GeneID 31398) | DRSC18416 | inactive |
| CG11384 (GeneID 31061) | DRSC18628 | inactive |
| TrpRS (GeneID 45399) | DRSC14097 | inactive |
| fng (GeneID 40314) | DRSC11455 | inactive |
| fng (GeneID 40314) | DRSC11887 | inactive |
| fng (GeneID 40314) | DRSC21935 | inactive |
| ais (GeneID 39979) | DRSC10523 | inactive |
| Mayo (GeneID 43678) | DRSC14300 | inactive |
| inaF-C (GeneID 5740497) | DRSC18902 | inactive |
| CG4950 (GeneID 39783) | DRSC10463 | inactive |
| Spn27A (GeneID 45815) | DRSC03608 | inactive |
| PNKP (GeneID 40994) | DRSC16512 | inactive |
| CG13894 (GeneID 38086) | DRSC08364 | inactive |
| Lztr1 (GeneID 31037) | DRSC18176 | inactive |
| Lztr1 (GeneID 31037) | DRSC18647 | inactive |
| hang (GeneID 32613) | DRSC19901 | inactive |
| hang (GeneID 32613) | DRSC19902 | inactive |
| CG8483 (GeneID 41623) | DRSC16430 | inactive |
| Blos2 (GeneID 39234) | DRSC10147 | inactive |
| Fad2 (GeneID 44006) | DRSC11165 | inactive |
| CG12641 (retired record) (GeneID 31963) | DRSC17848 | inactive |
| Cnx14D (GeneID 32620) | DRSC20214 | inactive |
| Dnaaf5 (GeneID 318680) | DRSC13032 | inactive |
| vimar (GeneID 35609) | DRSC05026 | inactive |
| CG4408 (GeneID 42762) | DRSC15574 | inactive |
| CG7565 (GeneID 38893) | DRSC10881 | inactive |
| ND-MLRQ (GeneID 317928) | DRSC11913 | inactive |
| CG30403 (GeneID 246595) | DRSC03889 | inactive |
| Src42A (GeneID 35524) | DRSC04915 | inactive |
| CG13727 (GeneID 39931) | DRSC10055 | inactive |
| CG18747 (GeneID 59143) | DRSC15384 | inactive |
| aux (GeneID 40527) | DRSC12161 | inactive |
| Rip11 (GeneID 32850) | DRSC20000 | inactive |
| mRpS21 (GeneID 318249) | DRSC12965 | inactive |
| mRpS21 (GeneID 318249) | DRSC21357 | inactive |
| lncRNA:CR32660 (GeneID 3771836) | DRSC22965 | inactive |
| hkb (GeneID 40549) | DRSC12377 | inactive |
| CG31183 (GeneID 41927) | DRSC14403 | inactive |
| CG31183 (GeneID 41927) | DRSC15554 | inactive |
| mew (GeneID 32275) | DRSC18971 | inactive |
| mew (GeneID 32275) | DRSC20352 | inactive |
| CG6788 + CR32496 | DRSC22043 | inactive |
| CG10948 (GeneID 39459) | DRSC09806 | inactive |
| comm3 (GeneID 39696) | DRSC09993 | inactive |
| comm3 (GeneID 39696) | DRSC09994 | inactive |
| comm3 (GeneID 39696) | DRSC09995 | inactive |
| eff (GeneID 41785) | DRSC16940 | active |
| CG12104 (GeneID 38187) | DRSC08254 | inactive |
| GILT3 (GeneID 42787) | DRSC14672 | inactive |
| IntS4 (GeneID 31793) | DRSC17810 | inactive |
| CG3594 (GeneID 37964) | DRSC04393 | inactive |
| CG3594 (GeneID 37964) | DRSC21959 | inactive |
| Cad87A (GeneID 41441) | DRSC16161 | inactive |
| CG5214 (GeneID 41360) | DRSC15739 | inactive |
| CG5214 (GeneID 41360) | DRSC22842 | inactive |
| Max (GeneID 40095) | DRSC11218 | inactive |
| BBS8 (GeneID 33217) | DRSC00360 | inactive |
| CG34273 (GeneID 5740836) | DRSC13041 | inactive |
| CG15145 (GeneID 35064) | DRSC02446 | inactive |
| bsk (GeneID 44801) | DRSC03499 | inactive |
| CG12078 (GeneID 38401) | DRSC08242 | inactive |
| dgt4 (GeneID 31361) | DRSC18659 | inactive |
| FipoQ (GeneID 43475) | DRSC15413 | inactive |
| Elp4 (GeneID 33775) | DRSC02999 | inactive |
| ACXE (GeneID 53426) | DRSC00847 | inactive |
| wdb (GeneID 43312) | DRSC14163 | active |
| CG6153 (GeneID 34675) | DRSC02935 | inactive |
| DENR (GeneID 32679) | DRSC20151 | inactive |
| Nepl9 (GeneID 35020) | DRSC02255 | inactive |
| CG1468 (GeneID 31920) | DRSC17946 | inactive |
| CNMaR (GeneID 39127) | DRSC08992 | inactive |
| CNMaR (GeneID 39127) | DRSC10224 | inactive |
| CG17121 (GeneID 42721) | DRSC15176 | inactive |
| CG33221 (retired record) (GeneID 2768878) | DRSC21201 | inactive |
| CG9083 (GeneID 37982) | DRSC04625 | inactive |
| CG13390 (GeneID 34154) | DRSC02261 | inactive |
| CG33111 (GeneID 50068) | DRSC14208 | inactive |
| CG33111 (GeneID 50068) | DRSC14444 | inactive |
| CG30480 (GeneID 246640) | DRSC06736 | inactive |
| ImpL2 (GeneID 38513) | DRSC08666 | inactive |
| CG14743 (GeneID 35860) | DRSC06479 | inactive |
| msl-2 (GeneID 33565) | DRSC00829 | inactive |
| CG8159 (GeneID 41040) | DRSC16392 | inactive |
| Hesr (GeneID 32800) | DRSC19965 | inactive |
| CG2604 (GeneID 40623) | DRSC12313 | inactive |
| Dad1 (GeneID 34159) | DRSC02263 | inactive |
| CG12170 (GeneID 40692) | DRSC12199 | inactive |
| lic (GeneID 32257) | DRSC20347 | inactive |
| ghi (GeneID 317833) | DRSC08985 | inactive |
| Cyp6a20 (GeneID 36664) | DRSC07380 | inactive |
| CG13972 (GeneID 43307) | DRSC14715 | inactive |
| Suv3 (GeneID 40543) | DRSC12335 | inactive |
| aurA (GeneID 41446) | DRSC16905 | inactive |
| Als2 (GeneID 40410) | DRSC11806 | inactive |
| CG14839 (GeneID 41736) | DRSC14963 | inactive |
| CG2519 (GeneID 40666) | DRSC12312 | inactive |
| Bug22 (GeneID 34429) | DRSC02842 | inactive |
| CG7987 (GeneID 41768) | DRSC16357 | inactive |
| CG10801 (GeneID 31314) | DRSC17761 | inactive |
| her (GeneID 34992) | DRSC03543 | inactive |
| NaCP60E (GeneID 37981) | DRSC04307 | inactive |
| NaCP60E (GeneID 37981) | DRSC21351 | inactive |

7 of these entries, set out differently:
{"gene": "aurA (GeneID 41446)", "DRSC id": "DRSC16905", "Call": "inactive"}
{"gene": "Als2 (GeneID 40410)", "DRSC id": "DRSC11806", "Call": "inactive"}
{"gene": "CG14839 (GeneID 41736)", "DRSC id": "DRSC14963", "Call": "inactive"}
{"gene": "CG2519 (GeneID 40666)", "DRSC id": "DRSC12312", "Call": "inactive"}
{"gene": "Bug22 (GeneID 34429)", "DRSC id": "DRSC02842", "Call": "inactive"}
{"gene": "CG7987 (GeneID 41768)", "DRSC id": "DRSC16357", "Call": "inactive"}
{"gene": "CG10801 (GeneID 31314)", "DRSC id": "DRSC17761", "Call": "inactive"}
